Test results as given in PubChem BioAssay AID2417 (National Center for Advancing Translational Sciences (NCATS), 2010).
About 4,300 (3.1%) of roughly 140,000 compounds were called active. The inconclusive results got no clear call from the source; some entries with a clear call stand among them for comparison.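 Rule for the calls: active = readout at or below -70, meaning at least 70% loss of cells showing the perinucleolar compartment, a nuclear body marking cancer cells; inconclusive = readout between -30 and a set limit; inactive = the rest.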

Assay: High Content Assay for Compounds that inhibit the Assembly of the Perinucleolar Compartment;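 note: plate controls were DMSO wells for no effect and camptothecin positive control wells for full effect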
Settings: PC3M PTB-GFP, PNC prevalence imaging, 16 h; at 10 µM; active compounds read low
Outline: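 Compounds are pinned in duplicate onto adhered PC3M cells stably expressing GFP-tagged PTB and incubated 16 h at 37 C. Cells are then fixed, nuclei stained with Hoechst, and PNC-positive cells counted.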

| SMILES | activity change (PNC), negative = inhibition |
| --- | --- |
| CSc1ccc(Cl)c(C(=O)NCc2ccco2)c1 | inconclusive: -36.5% |
| Cn1c(-c2ccc3c(c2)OCO3)cnc1NCc1ccc(Cl)cc1 | inconclusive: -48.6% |
| O=C(Cn1ncc2c(=O)oc3ccccc3c21)NC1CC1 | inconclusive: -40.2% |
| Cc1oc(C(C)(C)C)c(CN2CCCC2)c1C(=O)O | inconclusive: -50% |
| Cc1cc(/C=C2/NC(=O)N(Cc3ccccc3F)C2=O)c(C)n1-c1ccccn1 | inactive: 43.8% |
| N#Cc1ccc(OCC(=O)NCCc2ccccn2)cc1 | inconclusive: -51.9% |
| Cc1cnc2cc([N+](=O)[O-])ccc2n1 | inconclusive: -44.6% |
| O=C(NCc1ccccn1)C1CCN(S(=O)(=O)c2cccs2)CC1 | inactive: -15.6% |
| CN1CCN(c2nc(-c3ccco3)cc(C(F)(F)F)n2)CC1 | inactive: -23.2% |
| CC1CCN(C(=O)CSc2nnc(CNc3ccc(F)cc3)n2Cc2ccco2)CC1 | inconclusive: -72.4% |
| C/C(=N/NC(=O)c1ccoc1C)c1ccc(NC(=O)C2CCCC2)cc1 | active: -86.9% |
| Nc1nc(CN2CCCCC2)cs1 | inconclusive: -53.5% |
| Cc1ccc2c(c1)c(N=NC(N)=S)c(O)n2Cc1ccccc1 | inactive: 20.2% |
| CCN(Cc1cc2cc(C)ccc2[nH]c1=O)C(=O)c1cccc(OC)c1 | inconclusive: -55.5% |
| Cc1nc(SCC(O)CCl)c([N+](=O)[O-])[nH]1 (configuration not stated) | inactive: 31.9% |
| CC1(C)CC(=O)c2cc3c(nc2C1)CC(C)(C)CC3=O | inconclusive: -50.5% |
| C/C(=N\NC(=O)COc1cccc(Cl)c1)c1ccc2c(c1)OCCO2 | inconclusive: -31.4% |
| CCCc1cc(=O)[nH]c(SCC(=O)NC(=O)c2ccccc2)n1 | inconclusive: -50.9% |
| Cc1[nH]n(-c2ccc([N+](=O)[O-])cc2)c(=O)c1C=NCCc1c[nH]c2ccccc12 | inconclusive: -35.1% |

| SMILES | activity change (PNC), negative = inhibition |
| --- | --- |
| O=C(CC1(O)C(=O)Nc2ccccc21)c1ccc(-n2cccc2)cc1 (configuration not stated) | inconclusive: -64% |
| O=C1c2ccccc2NC(c2cccc(F)c2)N1Cc1ccco1 (configuration not stated) | inconclusive: -38.7% |
| CSc1ccc(CNc2ccc(Cl)cc2)cc1 | inactive: 1.5% |
| C=CCOC(=O)C1=C(C)NC(SCC(=O)Nc2nccs2)=C(C#N)C1c1ccc(Cl)cc1 (configuration not stated) | inactive: 6% |
| CCOc1cc(N2CCOCC2)c(OCC)cc1NC(=O)CSc1cccc[n+]1[O-] | inconclusive: -70.1% |
| COc1ccc(NC(=S)NNC(=O)c2cccs2)cc1 | active: -83.9% |
| CN(c1ccc(C(=O)Nc2ccccc2C(=O)N2CCOCC2)cc1)S(C)(=O)=O | inconclusive: -64.4% |
| CN(C)c1ccc(N=Nc2ccccc2C(=O)OCC(=O)N2CCCCCC2)cc1 | inconclusive: -76.7% |
| CCC(=O)NCc1c(Cl)cccc1-n1cccc1 | inconclusive: -33.3% |
| O=C(NCC(=O)N(c1cccnc1)C(C(=O)NCc1ccco1)c1ccccc1)c1ccco1 (configuration not stated) | inconclusive: -37.9% |
| COC(=O)c1ccccc1NC(=O)C1COc2ccccc2O1 (configuration not stated) | inconclusive: -33.8% |
| COc1cccc(N/C(N)=N/c2nc(C(F)(F)F)cc(=O)[nH]2)c1 | inconclusive: -70% |
| Oc1c(-c2cc(-c3ccco3)[nH]n2)ccc2ccccc12 | inconclusive: -48.1% |
| Cc1ccccc1C(=O)NC1CCN(Cc2nnnn2Cc2ccc(F)cc2)CC1 | inconclusive: -32.8% |
| CCN(CC)C(=O)/C(=C\c1ccc2c(c1)OCO2)NC(=O)c1ccc(Br)cc1 | inconclusive: -51.2% |
| Cc1cccc(N2CCCn3c2nc2c3c(=O)n(CC(=O)OCc3ccccc3)c(=O)n2C)c1 | inconclusive: -45.4% |
| CC(C)(C)C(=O)c1sc(Nc2ccccc2)nc1N | inactive: -17.1% |
| O=C(O)CN1C(=O)c2cccc(Oc3ccc(Cl)cc3)c2C1=O | inconclusive: -56% |
| CC(=O)N1CCN(C(=O)CSc2nc3c(cnn3-c3ccccc3)c(=O)[nH]2)CC1 | inconclusive: -50.4% |

| SMILES | activity change (PNC), negative = inhibition |
| --- | --- |
| COc1cc(OC)c(NC(=O)c2ccco2)cc1Cl | inactive: 39.2% |
| O=C(CSc1ncccn1)N/N=C/c1cccs1 | inconclusive: -50.8% |
| CCN1CC=C2C(C#N)=C(N)C(C#N)(C#N)[C@H](c3cccc(OC)c3OC)[C@H]2C1 | inconclusive: -67.9% |
| C/C(=N\NC(=O)Cc1c(C)[nH][nH]c1=O)c1ccc2ccccc2c1 | inconclusive: -52.2% |
| Cc1cc(OCCCCNC(C)C)cc(C(C)C)c1 | inconclusive: -50.1% |
| Cc1c(C(=O)Nc2ccc(F)cc2)c2ccccn2c1CCc1ccncc1 | inactive: 2.02% |
| COc1ccc(CN(C(=O)c2snc(C(N)=O)c2N)C(C(=O)NC(C)(C)C)c2ccco2)cc1 (configuration not stated) | active: -101% |
| CCOC(=O)C(NC(=O)CCC(=O)Nc1ccc(S(N)(=O)=O)cc1)C(O)c1ccccc1 (configuration not stated) | inconclusive: -37.1% |
| COc1cc(C(C)=O)ccc1COc1ccc(C(=O)OC(C)C(=O)NC(N)=O)cc1OC (configuration not stated) | inconclusive: -45.6% |
| CC(C)c1ccccc1NC(=O)c1ccc(CN(c2ccccc2)S(=O)(=O)c2ccccc2)cc1 | inconclusive: -44.2% |
| Cn1c(=O)c2c(ncn2Cc2ccccc2)n(C)c1=O | inactive: 10.1% |
| Cc1cc(C)nc(/N=C2\NC(=O)CC(C(=O)O)N2CCc2c[nH]c3ccccc23)n1 (configuration not stated) | inconclusive: -57.4% |
| CCN(CC)S(=O)(=O)c1ccc(N2CCOCC2)c(NC(=O)CC23CC4CC(CC(Br)(C4)C2)C3)c1 | inactive: -29.1% |
| Cc1ccc(OCc2nnc(SCC(=O)c3ccccc3)n2-c2ccccc2)cc1 | inconclusive: -30.3% |
| COc1ccc(-c2noc(CCC(N)=O)n2)cc1OC | active: -113% |
| Cn1nnnc1SCc1ccc(C(=O)Nc2nccs2)cc1 | inconclusive: -34.2% |
| O=C(O)CCCCCNS(=O)(=O)c1cccc2nsnc12 | inactive: 32.9% |
| COc1ccccc1C(=O)Nc1nc(-c2ccc(S(=O)(=O)N3CCOCC3)cc2)cs1 | inactive: -20.3% |
| Cc1ccc(S(=O)(=O)NC(=O)c2cccn2C)cc1 | inconclusive: -31.2% |

Two records picked at random from those above:

| SMILES | activity change (PNC), negative = inhibition |
| --- | --- |
| O=C(NCc1ccccn1)C1CCN(S(=O)(=O)c2cccs2)CC1 | inactive: -15.6% |
| Cc1ccc2c(c1)c(N=NC(N)=S)c(O)n2Cc1ccccc1 | inactive: 20.2% |
